{"source": "paper PMC2944878", "molecular_target": "T1, full-length HMT-1 as split-ubiquitin fusion (HMT-1-CubPLV bait; HMT-1-NubG prey) (C. elegans) (UniProt G5EFD4)", "T1 sequence": "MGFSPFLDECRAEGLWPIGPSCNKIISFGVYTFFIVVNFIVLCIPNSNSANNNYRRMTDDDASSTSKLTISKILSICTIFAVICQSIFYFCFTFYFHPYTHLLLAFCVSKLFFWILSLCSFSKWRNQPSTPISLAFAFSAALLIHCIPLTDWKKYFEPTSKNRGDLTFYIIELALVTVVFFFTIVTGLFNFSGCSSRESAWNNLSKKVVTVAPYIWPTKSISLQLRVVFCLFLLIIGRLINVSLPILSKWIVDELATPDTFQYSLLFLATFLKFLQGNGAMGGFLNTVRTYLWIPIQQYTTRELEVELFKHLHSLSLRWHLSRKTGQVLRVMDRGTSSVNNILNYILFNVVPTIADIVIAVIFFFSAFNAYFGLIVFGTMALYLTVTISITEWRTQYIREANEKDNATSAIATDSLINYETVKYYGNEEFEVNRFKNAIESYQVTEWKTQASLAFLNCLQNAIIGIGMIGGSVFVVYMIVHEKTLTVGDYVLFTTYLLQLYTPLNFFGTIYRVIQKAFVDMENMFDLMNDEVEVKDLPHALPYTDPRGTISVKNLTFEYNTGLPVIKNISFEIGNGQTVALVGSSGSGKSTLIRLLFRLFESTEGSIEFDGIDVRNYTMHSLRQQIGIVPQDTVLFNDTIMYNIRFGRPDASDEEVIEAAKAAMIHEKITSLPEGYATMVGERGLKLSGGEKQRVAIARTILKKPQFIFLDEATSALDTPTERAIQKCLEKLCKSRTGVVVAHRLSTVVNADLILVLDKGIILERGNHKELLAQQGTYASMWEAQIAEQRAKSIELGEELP", "assay": "two-hybrid; mating-based split-ubiquitin system (mbSUS) in diploid S. cerevisiae: CubPLV bait and NubG prey; growth on SC medium lacking adenine and histidine and β-galactosidase activity; bait repressed by 75 µM methionine as control", "note": "These are yes or no findings as the source states them, for the method shown. Sequences can lack the tags named with a protein.", "data": [{"substance": "N-terminal extension domain (NTE) of HMT-1 fused to NubG (C. elegans) (domain or fragment)", "values": [{"measurement": "binding", "result": "no binding"}]}]}
